Data reported in PMC5794803, “IGFBPL1 Regulates Axon Growth through IGF-1-mediated Signaling Cascades” (Scientific Reports, 2018).
No constants are given. Whether binding was seen depends on the method and setting. In cells and extracts the contact can be indirect. Some results given as binding are weak or reduced against the parent protein; the word gives no strength.

Sequences of proteins named here, by UniProt entry; tags and fusion partners are left off. Residues count along the entry.
UniProt P05017, residues 49-118: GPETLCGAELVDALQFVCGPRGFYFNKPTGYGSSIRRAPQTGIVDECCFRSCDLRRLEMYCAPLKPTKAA

T1: IGFBPL1, endogenous in newborn mouse retina (mouse (endogenous in P0 retina)) (UniProt Q80W15)
T1 sequence: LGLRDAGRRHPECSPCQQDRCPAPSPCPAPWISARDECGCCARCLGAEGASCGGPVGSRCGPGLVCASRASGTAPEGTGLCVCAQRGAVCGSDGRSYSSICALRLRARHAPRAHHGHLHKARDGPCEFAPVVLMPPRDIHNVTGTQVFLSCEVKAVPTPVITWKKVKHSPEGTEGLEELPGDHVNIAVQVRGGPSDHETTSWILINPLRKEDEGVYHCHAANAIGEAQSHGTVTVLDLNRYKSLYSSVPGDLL

B1: recombinant mouse IGFBPL1 (insulin-like growth factor binding protein-like 1) (natural protein, UniProt Q80W15 18-270, looked up)
chain: T1 sequence

Columns and labels:
[1] = target: T1, IGFBPL1, endogenous in newborn mouse retina (mouse (endogenous in P0 retina)); experiment: co-IP; pre-cleared retinal lysate of P0 mouse pups; goat anti-IGFBPL1 or goat anti-IGF-1 antibody coupled to resin (Pierce Co-IP kit), 4 °C overnight, Western blot
[2] = target: IGF-1, endogenous in newborn mouse retina (mouse (endogenous in P0 retina)) (UniProt P05017); experiment: as above

Row | Molecule | binding [1] | binding [2]
1 | IGF-1, endogenous in newborn mouse retina (from UniProt P05017 49-118) (ligand) | binds | 
2 | B1 |  | binds
